Some of the results follow.

Protein sequences, listed by entry. Tags and fused reporters are not part of them. Lines headed by an entry give the natural chain unless they say otherwise; changes in a name come on top.
UniProt P08183, whole entry, looked up: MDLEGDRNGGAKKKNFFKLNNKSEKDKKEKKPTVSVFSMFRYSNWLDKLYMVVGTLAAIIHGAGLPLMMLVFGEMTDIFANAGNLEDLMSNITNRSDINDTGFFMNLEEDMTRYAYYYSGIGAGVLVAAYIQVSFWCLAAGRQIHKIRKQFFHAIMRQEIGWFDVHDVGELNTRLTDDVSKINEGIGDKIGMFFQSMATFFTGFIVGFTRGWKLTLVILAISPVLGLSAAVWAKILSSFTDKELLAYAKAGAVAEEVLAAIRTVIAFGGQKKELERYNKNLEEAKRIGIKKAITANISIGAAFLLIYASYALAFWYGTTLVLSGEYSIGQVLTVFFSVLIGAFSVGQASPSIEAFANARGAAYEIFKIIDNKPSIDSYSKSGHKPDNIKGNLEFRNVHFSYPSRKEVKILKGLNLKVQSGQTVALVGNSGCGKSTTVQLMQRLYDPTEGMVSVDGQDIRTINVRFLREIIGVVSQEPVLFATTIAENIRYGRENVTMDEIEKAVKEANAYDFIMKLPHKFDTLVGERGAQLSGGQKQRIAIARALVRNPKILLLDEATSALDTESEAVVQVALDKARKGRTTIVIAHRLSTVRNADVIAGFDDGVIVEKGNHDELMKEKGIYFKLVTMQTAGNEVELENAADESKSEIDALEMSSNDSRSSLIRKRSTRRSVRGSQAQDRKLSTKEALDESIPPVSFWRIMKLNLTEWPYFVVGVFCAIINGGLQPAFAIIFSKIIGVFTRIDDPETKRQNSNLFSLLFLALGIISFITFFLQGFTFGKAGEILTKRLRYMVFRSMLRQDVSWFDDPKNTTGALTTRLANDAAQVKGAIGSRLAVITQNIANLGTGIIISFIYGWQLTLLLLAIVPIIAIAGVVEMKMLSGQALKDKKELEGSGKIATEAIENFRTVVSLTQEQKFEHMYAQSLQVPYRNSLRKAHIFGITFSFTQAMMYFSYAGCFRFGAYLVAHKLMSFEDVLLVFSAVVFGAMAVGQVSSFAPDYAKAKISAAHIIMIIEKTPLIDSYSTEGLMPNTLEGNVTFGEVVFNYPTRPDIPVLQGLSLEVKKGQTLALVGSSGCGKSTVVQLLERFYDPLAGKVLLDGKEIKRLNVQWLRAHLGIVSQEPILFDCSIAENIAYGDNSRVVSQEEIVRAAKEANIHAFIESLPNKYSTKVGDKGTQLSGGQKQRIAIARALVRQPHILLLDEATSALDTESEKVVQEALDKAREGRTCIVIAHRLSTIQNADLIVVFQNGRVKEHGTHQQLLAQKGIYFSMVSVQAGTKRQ
UniProt P78325: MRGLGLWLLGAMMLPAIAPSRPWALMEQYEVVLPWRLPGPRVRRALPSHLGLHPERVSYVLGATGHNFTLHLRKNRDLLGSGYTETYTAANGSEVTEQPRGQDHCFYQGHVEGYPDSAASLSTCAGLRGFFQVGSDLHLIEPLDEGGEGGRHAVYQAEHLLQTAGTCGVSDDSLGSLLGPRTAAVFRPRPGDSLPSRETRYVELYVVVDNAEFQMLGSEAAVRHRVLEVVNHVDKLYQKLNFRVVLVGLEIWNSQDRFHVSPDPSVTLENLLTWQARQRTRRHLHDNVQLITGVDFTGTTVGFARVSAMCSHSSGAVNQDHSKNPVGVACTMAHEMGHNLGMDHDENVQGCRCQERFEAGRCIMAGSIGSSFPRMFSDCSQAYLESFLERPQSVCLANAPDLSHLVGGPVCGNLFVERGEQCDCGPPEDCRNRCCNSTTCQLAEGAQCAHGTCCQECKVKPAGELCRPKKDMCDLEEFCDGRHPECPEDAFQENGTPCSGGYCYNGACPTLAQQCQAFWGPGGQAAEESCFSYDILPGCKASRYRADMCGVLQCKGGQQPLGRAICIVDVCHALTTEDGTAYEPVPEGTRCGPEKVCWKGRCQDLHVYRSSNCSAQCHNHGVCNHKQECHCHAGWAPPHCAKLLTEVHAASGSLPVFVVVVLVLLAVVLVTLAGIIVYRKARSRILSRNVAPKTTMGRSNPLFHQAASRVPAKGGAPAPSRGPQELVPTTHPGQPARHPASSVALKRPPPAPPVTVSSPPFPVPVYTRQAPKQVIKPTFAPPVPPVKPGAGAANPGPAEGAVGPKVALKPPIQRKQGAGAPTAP
UniProt Q562R1, whole entry, looked up: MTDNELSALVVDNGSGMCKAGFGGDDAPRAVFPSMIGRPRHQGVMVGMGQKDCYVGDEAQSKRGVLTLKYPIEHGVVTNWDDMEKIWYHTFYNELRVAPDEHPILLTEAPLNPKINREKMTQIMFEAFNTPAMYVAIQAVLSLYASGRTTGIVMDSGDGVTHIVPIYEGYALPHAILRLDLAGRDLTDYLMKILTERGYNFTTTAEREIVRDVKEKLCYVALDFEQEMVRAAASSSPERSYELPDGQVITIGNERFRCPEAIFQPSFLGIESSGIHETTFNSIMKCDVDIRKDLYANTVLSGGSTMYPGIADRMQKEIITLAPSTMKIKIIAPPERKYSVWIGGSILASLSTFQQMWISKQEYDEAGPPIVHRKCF
UniProt A8K2U0: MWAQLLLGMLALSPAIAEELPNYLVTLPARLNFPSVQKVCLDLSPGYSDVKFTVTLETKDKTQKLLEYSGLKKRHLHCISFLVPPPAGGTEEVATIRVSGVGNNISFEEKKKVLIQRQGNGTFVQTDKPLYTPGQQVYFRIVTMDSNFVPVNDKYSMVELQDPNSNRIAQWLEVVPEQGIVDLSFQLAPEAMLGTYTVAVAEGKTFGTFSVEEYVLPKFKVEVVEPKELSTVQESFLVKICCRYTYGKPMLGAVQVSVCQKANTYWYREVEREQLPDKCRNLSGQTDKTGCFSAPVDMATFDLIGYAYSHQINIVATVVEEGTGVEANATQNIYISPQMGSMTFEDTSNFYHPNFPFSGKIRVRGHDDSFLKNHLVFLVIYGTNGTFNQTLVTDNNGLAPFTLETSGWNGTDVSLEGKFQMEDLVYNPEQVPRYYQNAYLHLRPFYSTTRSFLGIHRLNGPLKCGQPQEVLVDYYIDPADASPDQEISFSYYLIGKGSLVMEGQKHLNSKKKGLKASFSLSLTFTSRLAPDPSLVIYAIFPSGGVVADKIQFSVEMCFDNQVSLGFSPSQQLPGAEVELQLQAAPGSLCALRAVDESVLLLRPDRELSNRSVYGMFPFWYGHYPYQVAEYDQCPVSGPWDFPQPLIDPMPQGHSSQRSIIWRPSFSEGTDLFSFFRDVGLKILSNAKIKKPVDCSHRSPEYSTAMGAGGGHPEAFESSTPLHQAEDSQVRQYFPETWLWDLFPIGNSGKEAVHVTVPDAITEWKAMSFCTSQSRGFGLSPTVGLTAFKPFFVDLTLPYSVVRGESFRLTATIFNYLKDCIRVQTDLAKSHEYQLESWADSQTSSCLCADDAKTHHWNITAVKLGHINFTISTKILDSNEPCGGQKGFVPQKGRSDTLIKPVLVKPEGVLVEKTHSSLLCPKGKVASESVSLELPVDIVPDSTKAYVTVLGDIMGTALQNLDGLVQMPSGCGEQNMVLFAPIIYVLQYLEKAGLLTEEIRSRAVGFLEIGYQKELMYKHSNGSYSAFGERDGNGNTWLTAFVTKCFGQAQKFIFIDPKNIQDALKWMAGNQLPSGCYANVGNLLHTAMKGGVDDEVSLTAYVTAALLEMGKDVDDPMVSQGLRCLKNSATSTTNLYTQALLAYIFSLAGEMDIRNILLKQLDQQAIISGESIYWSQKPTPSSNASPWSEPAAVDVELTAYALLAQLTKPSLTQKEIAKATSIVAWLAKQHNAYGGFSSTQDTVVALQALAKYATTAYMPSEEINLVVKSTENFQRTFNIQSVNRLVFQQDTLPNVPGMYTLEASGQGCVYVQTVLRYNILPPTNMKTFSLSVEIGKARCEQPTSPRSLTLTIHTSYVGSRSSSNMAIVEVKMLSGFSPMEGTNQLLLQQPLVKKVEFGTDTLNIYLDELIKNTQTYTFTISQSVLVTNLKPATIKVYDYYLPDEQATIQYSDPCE
UniProt Q96M93: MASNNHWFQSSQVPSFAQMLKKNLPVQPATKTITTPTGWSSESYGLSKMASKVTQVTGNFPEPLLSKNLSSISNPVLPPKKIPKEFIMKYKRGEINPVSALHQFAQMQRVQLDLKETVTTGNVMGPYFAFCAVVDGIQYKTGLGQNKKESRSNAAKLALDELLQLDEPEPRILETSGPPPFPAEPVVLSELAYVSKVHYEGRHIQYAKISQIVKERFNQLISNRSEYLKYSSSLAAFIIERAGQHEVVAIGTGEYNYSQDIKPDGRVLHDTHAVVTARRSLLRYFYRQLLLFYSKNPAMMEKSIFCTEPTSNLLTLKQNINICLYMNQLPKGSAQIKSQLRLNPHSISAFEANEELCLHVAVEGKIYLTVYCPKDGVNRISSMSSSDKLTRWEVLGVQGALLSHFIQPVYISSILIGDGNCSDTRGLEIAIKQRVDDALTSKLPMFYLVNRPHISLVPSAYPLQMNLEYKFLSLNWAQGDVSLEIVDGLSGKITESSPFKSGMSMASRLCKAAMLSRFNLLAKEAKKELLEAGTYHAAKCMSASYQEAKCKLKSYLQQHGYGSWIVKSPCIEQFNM
UniProt Q8N6N7: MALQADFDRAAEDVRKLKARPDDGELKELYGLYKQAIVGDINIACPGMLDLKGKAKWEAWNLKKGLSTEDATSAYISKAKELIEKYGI
UniProt P53396: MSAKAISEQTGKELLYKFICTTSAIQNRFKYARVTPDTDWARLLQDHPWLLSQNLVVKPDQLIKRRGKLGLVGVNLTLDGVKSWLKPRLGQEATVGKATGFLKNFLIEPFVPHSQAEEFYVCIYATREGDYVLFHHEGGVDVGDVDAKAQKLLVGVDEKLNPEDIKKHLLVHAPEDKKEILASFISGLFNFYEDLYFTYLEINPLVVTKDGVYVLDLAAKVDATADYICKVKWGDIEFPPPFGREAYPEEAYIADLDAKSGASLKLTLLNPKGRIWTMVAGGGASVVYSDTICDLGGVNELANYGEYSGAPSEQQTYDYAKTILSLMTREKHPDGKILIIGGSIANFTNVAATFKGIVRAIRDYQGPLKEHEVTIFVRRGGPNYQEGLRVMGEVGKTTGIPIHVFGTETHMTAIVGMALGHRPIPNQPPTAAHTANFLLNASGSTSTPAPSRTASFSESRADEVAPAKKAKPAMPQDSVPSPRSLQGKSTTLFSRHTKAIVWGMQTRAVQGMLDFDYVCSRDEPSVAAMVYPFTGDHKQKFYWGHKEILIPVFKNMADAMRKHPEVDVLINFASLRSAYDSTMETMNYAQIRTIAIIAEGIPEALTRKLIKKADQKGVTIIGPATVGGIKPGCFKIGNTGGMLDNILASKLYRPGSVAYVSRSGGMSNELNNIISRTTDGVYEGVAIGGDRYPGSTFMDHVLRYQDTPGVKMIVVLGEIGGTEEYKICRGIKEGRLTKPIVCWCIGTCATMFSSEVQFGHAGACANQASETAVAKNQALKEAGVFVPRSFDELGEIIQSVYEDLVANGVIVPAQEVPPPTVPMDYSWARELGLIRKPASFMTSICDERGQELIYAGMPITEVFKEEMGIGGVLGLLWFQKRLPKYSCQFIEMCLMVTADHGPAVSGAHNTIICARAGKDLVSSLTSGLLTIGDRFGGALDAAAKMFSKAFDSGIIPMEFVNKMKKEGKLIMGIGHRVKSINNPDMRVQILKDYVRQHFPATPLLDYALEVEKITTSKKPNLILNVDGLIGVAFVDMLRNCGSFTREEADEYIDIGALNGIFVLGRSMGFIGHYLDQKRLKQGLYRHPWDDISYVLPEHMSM

The source of these data is the supplement of paper PMC10849652.

Holding throughout (assay): log2 fold change, soluble protein after heating vs DMSO (PISA); higher = thermal stabilisation; K562 cells, 10 uM, 30 min; active = over 0.2 and 3.5 SD of the protein, either way, in both replicates (recomputed)
Compound in experiment [1]: COC1=CC=C(C=C1)CN2C=CC3=C2C=C(C=C3)C(=O)NO
The method in brief:
(§1)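 Aliquots of K562 cells (2×10^6 cells/mL) treated with 10 μM compound for 30 min were heated for 3 min over 48°C-58°C. After pooling and extraction in PBS with 0.5% NP-40 at 4°C, soluble protein from a 21,000xg, 90 min spin was quantified by TMTpro 16plex LC-MS/MS with channel sums equalised. Thermal stability is expressed against control samples, from duplicates, as a log2 fold change.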

Compound in a further experiment: CO[C@H]1C[C@@H]2CC[C@@H](C)[C@@](O)(O2)C(=O)C(=O)N2CCCC[C@H]2C(=O)O[C@H]([C@H](C)C[C@@H]2CC[C@H](n3cnnn3)[C@H](OC)C2)CC(=O)[C@H](C)/C=C(\C)[C@@H](O)[C@@H](OC)C(=O)[C@H](C)C[C@H](C)/C=C/C=C/C=C/1C [zotarolimus]
Put shortly: as §1

Compound in the next experiment: COc1cc(C(=O)O)ccc1NC(=O)[C@@H]1N[C@@H](CC(C)(C)C)[C@](C#N)(c2ccc(Cl)cc2F)[C@H]1c1cccc(Cl)c1F [idasanutlin]
The method in brief:
as §1

Compound in another experiment: COc1cc(Nc2ncc3c(n2)-c2ccc(Cl)cc2C(c2c(F)cccc2OC)=NC3)ccc1C(=O)O [alisertib]
The method in brief: as §1

Compound in experiment [2]: COc1cc2nc(-c3cc(F)ccc3O)nc(N[C@@H]3CNC[C@H]3C(C)(C)O)c2cc1OC
The method in brief: as §1

Compound in experiment [3]: COc1cccc2cc(-c3nc([C@H]4CC[C@H](C(=O)O)CC4)n4ncnc(N)c34)[nH]c12
The method in brief:
as §1

Compound in a further experiment: CS(=O)(=O)CCNCc1ccc(-c2ccc3ncnc(Nc4ccc(OCc5cccc(F)c5)c(Cl)c4)c3c2)o1 [lapatinib]
Put shortly: as §1

Compound in a further experiment: C[C@@H](Oc1cc(-c2cnn(C3CCNCC3)c2)cnc1N)c1c(Cl)ccc(F)c1Cl [crizotinib]
The method in brief: as §1

Compound in experiment [4]: C[C@H](C1=CC=C(C=C1)C(=O)NC2=C3C=CNC3=NC=C2)N
The method in brief:
as §1

Compound in the next experiment: Cc1cc(Nc2cc(N3CCN(C)CC3)nc(Sc3ccc(NC(=O)C4CC4)cc3)n2)n[nH]1 [tozasertib]
The method in brief: as §1

Compound in the next experiment: Cc1ccc(-n2nc(C(C)(C)C)cc2NC(=O)Nc2ccc(OCCN3CCOCC3)c3ccccc23)cc1 [doramapimod]
The method in brief:
as §1

Compound in experiment [5]: C[C@@H]1COCCN1C2=NC(=NC(=C2)C3(CC3)S(=O)(=O)C)C4=C5C=CNC5=CC=C4
Put shortly: as §1

Compound in a further experiment: CON(C)C(=O)N1N=C(c2cc(F)ccc2F)S[C@@]1(CCCN)c1ccccc1 [filanesib]
The method in brief:
as §1

Compound in the next experiment: COc1cc2ncnc(Nc3ccc(F)c(Cl)c3)c2cc1OCCCN1CCOCC1 [gefitinib]
The method in brief: as §1

Compound in a further experiment: CS(=O)(=O)N1CCN(Cc2cc3nc(-c4cccc5[nH]ncc45)nc(N4CCOCC4)c3s2)CC1 [pictilisib]
Put shortly:
as §1

Compound in experiment [6]: CS(=O)(=O)c1ccc(-c2cnc(N)c(C(=O)Nc3ccccc3)n2)cc1
Put shortly:
as §1

Compound in the next experiment: Cc1cc(Nc2cc(CN3CCOCC3)c3nc(C)c(Cc4ccc(Cl)cc4F)n3n2)n[nH]1 [gandotinib]
Put shortly:
as §1

Compound in experiment [7]: Cc1cc(SCc2sc(-c3ccc(C(F)(F)F)cc3)nc2C)ccc1OCC(=O)O
The method in brief:
as §1

Compound in another experiment: Cc1ccc(C(=O)N(CCCN)[C@@H](c2nc3cc(Cl)ccc3c(=O)n2Cc2ccccc2)C(C)C)cc1 [ispinesib]
The method in brief:
as §1

Compound in the next experiment: C[C@H](Nc1ncnc2nc[nH]c12)c1cc2cccc(Cl)c2c(=O)n1-c1ccccc1 [duvelisib]
The method in brief:
as §1

In the case of ABCB1 (UniProt P08183), the log2 fold change was inactive: -0.083 in experiment [1]; inactive: 0.035 in the experiment with zotarolimus; inactive: 0.006 with idasanutlin; inactive: 0.554 in the experiment with alisertib; inactive: 0.016 in experiment [2]; inactive: -0.055 in experiment [3]. Further, the log2 fold change with lapatinib was inactive: -0.127; with crizotinib, inactive: -0.194; in [4] it was inactive: 0.006; with tozasertib it was inactive: -0.256; in the experiment with doramapimod it was inactive: 0.166.

Consider ACOT7 (UniProt K7EKP8), for which the log2 fold change with idasanutlin was inactive: 0.084.

With ADAM8 (UniProt P78325), the log2 fold change in [1] is inactive: -0.177; in the experiment with crizotinib, inactive: -0.003; in experiment [5], inactive: -0.025; with doramapimod it was inactive: 0.083.

For the target ACTBL2 (UniProt Q562R1), the log2 fold change is inactive: 0.171 in the experiment with filanesib; inactive: 0.533 in the experiment with idasanutlin; inactive: 0.521 in the experiment with alisertib; inactive: -0.085 in experiment [2]; inactive: 0.348 in the experiment with gefitinib; inactive: -0.105 in experiment [3]. The log2 fold change in the experiment with lapatinib was inactive: -0.079; in the experiment with pictilisib, inactive: -0.541; in [6], inactive: -0.022; in [5], inactive: -0.005; with gandotinib, inactive: -0.828; in [7] it was inactive: -0.299. Besides, the log2 fold change in the experiment with ispinesib is inactive: -0.307.

For the target A2ML1 (UniProt A8K2U0), the log2 fold change is inactive: 0.502 in the experiment with filanesib; inactive: 0.513 in the experiment with idasanutlin; inactive: 0.486 in the experiment with alisertib; inactive: 0.052 in [2]; inactive: 0.059 with gefitinib; inactive: -0.056 in experiment [3]. In addition, the log2 fold change was inactive: -0.416 in the experiment with lapatinib, inactive: 0.648 in experiment [6], inactive: 0.166 with tozasertib and inactive: -0.139 with ispinesib.

Turning to ADAMTS13 (UniProt Q76LX8), the log2 fold change was inactive: -0.014 with filanesib; inactive: 0.14 in the experiment with idasanutlin; inactive: 0.105 in experiment [2]; inactive: -0.098 in the experiment with lapatinib; inactive: -0.15 in experiment [6]; inactive: -0.132 in experiment [5]. Moreover, the log2 fold change was inactive: -0.211 in the experiment with duvelisib and inactive: -0.121 in experiment [7].

As for ADAD1 (UniProt Q96M93), the log2 fold change is inactive: -0.198 in [1]; inactive: -0.145 with zotarolimus; inactive: -0.176 in the experiment with alisertib; inactive: -0.013 with gefitinib; inactive: 0.07 in experiment [3]; inactive: 0.323 with pictilisib. Moreover, the log2 fold change with crizotinib was inactive: -0.005; in experiment [4] it was inactive: 0.243; with duvelisib, inactive: 0.354; with gandotinib it was inactive: 0; with tozasertib, inactive: -0.053; in experiment [7], inactive: -0.088. For the same target, the log2 fold change in the experiment with doramapimod is inactive: 0.01; with ispinesib it was inactive: -0.28.

Turning to ACBD7 (UniProt Q8N6N7), the log2 fold change was inactive: 0.012 in [2]; inactive: -0.289 in the experiment with lapatinib; inactive: 0.177 with pictilisib; inactive: -0.078 with duvelisib; inactive: 0.036 in the experiment with gandotinib; inactive: -0.053 in experiment [7].

As for ACTB, A0A2R8YGF8, the values for the log2 fold change (with alisertib; in [3]) were inactive: 2.67 and inactive: 0.088, respectively.

With ACLY isoform 2 (UniProt P53396), the log2 fold change with filanesib was inactive: -0.009; in the experiment with idasanutlin, inactive: 0.094; with alisertib it was inactive: 0.058; in experiment [2], inactive: -0.013; in the experiment with gefitinib, inactive: -0.057; in experiment [3], inactive: 0.231. Also, the log2 fold change was inactive: -0.151 with lapatinib; inactive: 0.048 in experiment [6]; inactive: -0.104 in experiment [5]; inactive: 0.048 with tozasertib; inactive: -0.084 with ispinesib.

As to ABCE1 (UniProt H0Y990), the log2 fold change is inactive: -0.085 with filanesib; inactive: -0.108 in the experiment with zotarolimus; inactive: -0.201 with idasanutlin; inactive: -0.145 in the experiment with alisertib; inactive: 0.012 in experiment [2]; inactive: -0.027 with gefitinib. Further, the log2 fold change in [3] is inactive: 0.03; with lapatinib, inactive: -0.05; in the experiment with pictilisib, inactive: -0.136; in experiment [6] it was inactive: -0.028; in experiment [5] it was inactive: 0.036; in experiment [4] it was inactive: -0.105. Also, the log2 fold change in the experiment with duvelisib is inactive: 0.129; with gandotinib, inactive: -0.203; in the experiment with tozasertib, inactive: -0.015; in [7], inactive: -0.147.

With ACAA2 (UniProt K7ER88), the log2 fold change in the experiment with filanesib is inactive: 0.01; with idasanutlin, inactive: 0.081; with alisertib, inactive: 0.057; in [2], inactive: -0.013; with gefitinib it was inactive: 0.061; in [3], inactive: -0.504. For the same target, the log2 fold change is inactive: -0.057 with lapatinib, inactive: -0.089 in experiment [6] and inactive: 0.129 in [5].

ACTR3B (UniProt Q9P1U1): the log2 fold change is active: 0.407 in experiment [1]; inactive: 0.022 in experiment [2]; inactive: -0.213 in the experiment with gefitinib; inactive: -0.056 with lapatinib; inactive: -0.021 in the experiment with pictilisib; inactive: -0.005 in the experiment with crizotinib. The log2 fold change with gandotinib was inactive: 0.024; with doramapimod it was inactive: 0.158; with ispinesib, inactive: -0.069.

With ACTG1 (UniProt I3L4N8), the log2 fold change with alisertib was inactive: 1.55; with gefitinib, inactive: 0.036; in experiment [3], inactive: 0.035; in the experiment with duvelisib, inactive: 1.03; in experiment [7], inactive: 1.03; with ispinesib, inactive: -0.012.
